Record: PubChem BioAssay AID1259425 (University of Nebraska Medical Center, 2018)

Screen: 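Find knockdowns that reproduce the gene expression pattern seen when KSR1 is lost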 (primary screen)
Cell system: HCT116 human colon cancer cells
Reagent: siRNA pool against human genes, 50 nM siRNA
Measured: 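After 50 nM siRNA pool, branched-DNA assay measures six marker transcripts per well, minus blank, normalised to the geometric mean of two housekeeping transcripts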
Scale: BNIP3L mRNA: higher = more BNIP3L transcript after knockdown; NDRG1 mRNA: higher = more NDRG1 transcript after knockdown
Here is one part, drawn at random, of about 14,000 reagents tested. Further read-outs or replicates are left out here. No sequences are given here. Not given: the time to read-out.

SPTSSB scored BNIP3L mRNA, set 1 = 0.0616; NDRG1 mRNA, set 1 = 0.337.
After knock-down of TPP1 the results were BNIP3L mRNA, set 1 = 0.222; NDRG1 mRNA, set 1 = 0.269.
Against SELENON the deposit lists BNIP3L mRNA, set 1 = 0.672; NDRG1 mRNA, set 1 = 0.185.
DLG4 scored BNIP3L mRNA, set 1 = 0.0402; NDRG1 mRNA, set 1 = 0.295.
For H4C13 the deposit lists BNIP3L mRNA, set 1 = 0.133; NDRG1 mRNA, set 1 = 0.0523.
Against MEX3B, the entry reads BNIP3L mRNA, set 1 = 0.202; NDRG1 mRNA, set 1 = 0.11.
BPTF scored BNIP3L mRNA, set 1 = 0.173; NDRG1 mRNA, set 1 = 0.121.
Against CD69 the deposit lists BNIP3L mRNA, set 1 = 0.0626; NDRG1 mRNA, set 1 = 0.154.
KIAA0492 (retired record) scored BNIP3L mRNA, set 1 = 0.205; NDRG1 mRNA, set 1 = 0.122.
After knock-down of LDB1, the record shows BNIP3L mRNA, set 1 = 0.0599; NDRG1 mRNA, set 1 = 0.0755.
Silencing of DCUN1D2 came out at: BNIP3L mRNA, set 1 = 0.0558; NDRG1 mRNA, set 1 = 0.322.
For PSMC2, the entry reads BNIP3L mRNA, set 1 = 0.15; NDRG1 mRNA, set 1 = 1.68.

Just “BNIP3L mRNA, set 1” (2 entries from above):
MEX3B: 0.202
BPTF: 0.173
